This note sets out measurements from paper PMC9452577.

The target of assay [1] is GFP-RCAN1 (pCMV-EGFP-RCAN1.1 S). As to the kind of experiment: co-IP; HK-2 cells transfected with GFP-RCAN1 (RCAN1 overexpression); 1 mg total lysate with anti-GFP and other antibodies overnight at 4 °C, protein A/G magnetic beads; IgG control; immunoblot for GFP, JNK and Mff. Background: In western blotting, separated proteins are transferred to a membrane and probed.
Assay [2] deals with c-Jun N-terminal kinase (JNK), endogenous (human (endogenous in HK-2)). The assay can be described thus: co-IP; endogenous proteins in HK-2 cells under hypoxia/reoxygenation (HR) injury; 1 mg total lysate (1% Triton X-100, 150 mM NaCl, 60 mM octyl glucoside buffer) with anti-RCAN1, anti-JNK or anti-Mff overnight at 4 °C, protein A/G magnetic beads; IgG control; immunoblot.

No constants are given. Whether binding was seen depends on the method and setting. In cells and extracts the contact can be indirect. Binding can be weak; no strength is given.

B1: Mitochondrial fission factor (Mff), endogenous (protein, UniProt Q9GZY8 1-342)
chain: MSKGTSSDTSLGRVSRAAFPSPTAAEMAEISRIQYEMEYTEGISQRMRVPEKLKVAPPNADLEQGFQEGVPNASVIMQVPERIVVAGNNEDVSFSRPADLDLIQSTPFKPLALKTPPRVLTLSERPLDFLDLERPPTTPQNEEIRAVGRLKRERSMSENAVRQNGQLVRNDSLWHRSDSAPRNKISRFQAPISAPEYTVTPSPQQARVCPPHMLPEDGANLSSARGILSLIQSSTRRAYQQILDVLDENRRPVLRGGSAAATSNPHHDNVRYGISNIDTTIEGTSDDLTVVDAASLRRQIIKLNRRLQLLEEENKERAKREMVMYSITVAFWLLNSWLWFRR
On to B1, for which the binding entry in assay [1] and in assay [2] was “binds” throughout.
